# Laboratory results taken from patent publication US8466289B2, “Heterocyclic sulfonamide derivatives” (Novartis AG, priority 2009, dated 2013).
# At least one compound was matched to its structure with a doubt left.
# Test system: BRAF-MEK-ERK cascade (activated BRAF (V599E), unactive MEK1, unactive MAP Kinase 2/ERK2)
# Test: BRAF-MEK-ERK enzymatic cascade assay (TR-FRET)
# Format: biochemical, human
# Settings: compounds screened at 10 μM, 45 minutes pre-incubation with enzymes, 100 μM ATP
# Description: A BRAF-MEK-ERK cascade assay is used to evaluate the effects of the compounds as inhibitors of the MAP kinase pathway. An enzymatic cascade assay is set up using recombinant human activated BRAF (V599E) kinase (Cat No. 14-557), human full length unactive MEK1 kinase (Cat No. 14-706) and human full length unactive MAP Kinase 2/ERK2 (Cat No. 14-536) enzymes procured from Upstate. TR-FRET (Time resolved fluorescence resonance energy transfer) detection technology is used for the read out. […] The kinase reaction is stopped after 90 minutes with 10 mM EDTA and Lance detection mix (2 nM Eu-labeled phospho-serine/threonine antibody (Cat. No. AD0176-Perkin Elmer), 20 nM SA-APC (Cat No. CR130-100-Perkin Elmer) is added. The TR-FRET signal (Excitation at 340 nm, Emission at 615 nm and 665 nm) is read with 50 μs delay time on a Victor3 V fluorimeter. The data is calculated using the ratio of readings at 665 nm to 615 nm. The final concentration of DMSO is 2.5% in the assay. Compounds are screened at 10 μM concentration with pre-incubation of the enzymes in the presence of test compound for 45 minutes.
# Each individual IC50 is determined using a 10 point dose response curve generated by GraphPad Prism software Version 4 (San Diego, Calif., USA) using non linear regression curve fit for sigmoidal dose response (variable slope). […]
smiles,measurement,value
"Cc1c(Nc2ccc(I)cc2F)c(NS(=O)(=O)CCC2COC2)c2n(c1=O)CCO2 [Example 17A, N-(7-(2-fluoro-4-iodophenylamino)-6-methyl-5-oxo-3,5-dihydro-2H-oxazolo[3,2-a]pyridin-8-yl)-2-(oxetan-3-yl)ethanesulfonamide]",% inhibition,100%
